From the supplement of paper PMC10849652
The other results are listed elsewhere or left out.

Sequences of proteins named here, by UniProt entry; tags and fusion partners are left off. A change or cut given only in a name is not applied to a line headed by its entry.
UniProt O75683: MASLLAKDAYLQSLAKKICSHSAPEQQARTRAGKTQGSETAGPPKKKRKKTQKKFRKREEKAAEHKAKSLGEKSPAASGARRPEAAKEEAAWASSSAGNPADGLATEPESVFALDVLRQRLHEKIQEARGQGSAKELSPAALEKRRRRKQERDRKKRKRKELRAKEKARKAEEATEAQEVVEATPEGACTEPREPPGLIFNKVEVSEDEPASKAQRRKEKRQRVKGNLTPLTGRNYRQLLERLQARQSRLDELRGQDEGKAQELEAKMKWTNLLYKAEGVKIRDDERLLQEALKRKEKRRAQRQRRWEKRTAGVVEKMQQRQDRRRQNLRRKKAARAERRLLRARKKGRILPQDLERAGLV
UniProt P46977: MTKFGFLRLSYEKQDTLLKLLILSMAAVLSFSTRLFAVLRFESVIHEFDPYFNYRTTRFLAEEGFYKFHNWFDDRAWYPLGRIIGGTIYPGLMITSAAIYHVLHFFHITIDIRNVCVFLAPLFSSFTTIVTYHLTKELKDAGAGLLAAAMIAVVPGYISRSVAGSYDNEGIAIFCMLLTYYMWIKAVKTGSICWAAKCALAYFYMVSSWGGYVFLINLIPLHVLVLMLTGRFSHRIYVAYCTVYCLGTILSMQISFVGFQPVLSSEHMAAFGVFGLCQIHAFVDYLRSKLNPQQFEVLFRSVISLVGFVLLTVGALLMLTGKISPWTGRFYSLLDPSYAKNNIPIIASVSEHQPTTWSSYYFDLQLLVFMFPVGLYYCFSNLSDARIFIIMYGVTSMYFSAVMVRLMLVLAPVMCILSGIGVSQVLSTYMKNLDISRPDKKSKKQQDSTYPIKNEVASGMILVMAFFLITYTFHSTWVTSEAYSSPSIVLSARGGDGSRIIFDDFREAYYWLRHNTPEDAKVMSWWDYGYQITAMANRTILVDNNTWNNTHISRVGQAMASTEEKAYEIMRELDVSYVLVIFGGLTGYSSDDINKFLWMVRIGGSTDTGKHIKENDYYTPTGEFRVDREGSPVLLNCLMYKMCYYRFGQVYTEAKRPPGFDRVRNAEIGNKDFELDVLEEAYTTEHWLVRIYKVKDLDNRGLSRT
UniProt Q15022: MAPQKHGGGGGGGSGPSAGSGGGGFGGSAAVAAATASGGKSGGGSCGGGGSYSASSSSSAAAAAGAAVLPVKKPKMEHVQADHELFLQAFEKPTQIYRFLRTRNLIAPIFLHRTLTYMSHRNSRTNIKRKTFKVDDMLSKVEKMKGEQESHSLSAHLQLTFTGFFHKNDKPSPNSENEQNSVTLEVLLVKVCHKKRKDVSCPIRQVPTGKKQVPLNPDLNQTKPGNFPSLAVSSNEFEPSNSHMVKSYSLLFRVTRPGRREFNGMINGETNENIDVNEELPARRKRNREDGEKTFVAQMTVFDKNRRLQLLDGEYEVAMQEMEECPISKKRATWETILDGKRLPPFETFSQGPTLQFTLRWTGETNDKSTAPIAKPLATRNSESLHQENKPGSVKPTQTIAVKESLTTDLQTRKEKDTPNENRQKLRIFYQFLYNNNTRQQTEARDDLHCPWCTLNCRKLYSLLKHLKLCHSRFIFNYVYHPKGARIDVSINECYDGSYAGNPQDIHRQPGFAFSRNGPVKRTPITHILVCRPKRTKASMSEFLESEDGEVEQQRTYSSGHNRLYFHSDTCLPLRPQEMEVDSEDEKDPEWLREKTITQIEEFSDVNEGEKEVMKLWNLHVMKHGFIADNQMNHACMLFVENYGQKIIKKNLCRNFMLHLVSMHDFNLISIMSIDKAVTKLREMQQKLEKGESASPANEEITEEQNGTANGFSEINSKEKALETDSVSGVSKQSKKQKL
UniProt Q12962, whole entry, looked up: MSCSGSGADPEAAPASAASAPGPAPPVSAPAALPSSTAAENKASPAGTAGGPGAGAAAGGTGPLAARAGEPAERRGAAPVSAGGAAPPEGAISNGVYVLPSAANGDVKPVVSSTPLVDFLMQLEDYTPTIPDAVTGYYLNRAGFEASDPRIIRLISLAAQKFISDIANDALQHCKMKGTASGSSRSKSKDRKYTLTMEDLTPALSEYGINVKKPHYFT
UniProt Q15750: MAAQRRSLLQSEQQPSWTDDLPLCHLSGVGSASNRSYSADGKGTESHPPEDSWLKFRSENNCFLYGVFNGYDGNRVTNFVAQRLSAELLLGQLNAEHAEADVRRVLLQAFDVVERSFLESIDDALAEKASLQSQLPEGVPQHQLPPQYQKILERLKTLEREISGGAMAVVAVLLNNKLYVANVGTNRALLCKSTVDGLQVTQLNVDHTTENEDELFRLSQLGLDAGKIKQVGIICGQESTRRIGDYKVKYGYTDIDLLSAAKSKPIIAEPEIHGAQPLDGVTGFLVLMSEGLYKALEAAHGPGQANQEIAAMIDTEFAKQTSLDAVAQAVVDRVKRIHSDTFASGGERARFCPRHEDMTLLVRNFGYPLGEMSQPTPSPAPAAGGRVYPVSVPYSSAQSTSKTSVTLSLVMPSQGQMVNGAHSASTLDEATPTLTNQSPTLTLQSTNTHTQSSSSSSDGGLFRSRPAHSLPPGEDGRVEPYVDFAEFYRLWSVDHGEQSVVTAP
UniProt Q1ZZU3: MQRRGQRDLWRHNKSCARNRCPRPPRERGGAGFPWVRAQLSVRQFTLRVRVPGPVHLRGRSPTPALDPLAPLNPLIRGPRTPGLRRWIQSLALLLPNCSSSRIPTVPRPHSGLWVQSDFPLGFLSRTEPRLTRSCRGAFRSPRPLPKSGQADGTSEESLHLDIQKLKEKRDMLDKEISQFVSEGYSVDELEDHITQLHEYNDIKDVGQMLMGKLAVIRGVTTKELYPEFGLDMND
UniProt Q13033: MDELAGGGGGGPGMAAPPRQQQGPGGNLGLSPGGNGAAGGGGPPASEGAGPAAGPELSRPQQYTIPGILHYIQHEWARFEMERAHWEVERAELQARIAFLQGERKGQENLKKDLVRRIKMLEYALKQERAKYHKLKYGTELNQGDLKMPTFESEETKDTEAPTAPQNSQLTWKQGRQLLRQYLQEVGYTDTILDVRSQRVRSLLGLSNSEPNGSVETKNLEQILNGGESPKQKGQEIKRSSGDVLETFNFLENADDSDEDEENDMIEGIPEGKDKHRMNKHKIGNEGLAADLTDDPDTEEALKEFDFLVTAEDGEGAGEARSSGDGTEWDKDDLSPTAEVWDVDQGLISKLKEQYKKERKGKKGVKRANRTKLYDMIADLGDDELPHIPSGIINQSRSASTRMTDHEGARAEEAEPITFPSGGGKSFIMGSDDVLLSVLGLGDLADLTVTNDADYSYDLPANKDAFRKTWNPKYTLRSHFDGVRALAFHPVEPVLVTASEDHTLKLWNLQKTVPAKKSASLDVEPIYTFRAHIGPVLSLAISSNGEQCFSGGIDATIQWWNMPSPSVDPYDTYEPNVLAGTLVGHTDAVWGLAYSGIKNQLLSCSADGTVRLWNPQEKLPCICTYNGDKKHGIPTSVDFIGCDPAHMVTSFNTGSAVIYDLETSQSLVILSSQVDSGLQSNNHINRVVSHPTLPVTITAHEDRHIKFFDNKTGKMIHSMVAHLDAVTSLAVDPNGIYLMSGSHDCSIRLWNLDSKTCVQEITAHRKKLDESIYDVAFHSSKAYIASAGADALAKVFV
UniProt O00268, whole entry, looked up: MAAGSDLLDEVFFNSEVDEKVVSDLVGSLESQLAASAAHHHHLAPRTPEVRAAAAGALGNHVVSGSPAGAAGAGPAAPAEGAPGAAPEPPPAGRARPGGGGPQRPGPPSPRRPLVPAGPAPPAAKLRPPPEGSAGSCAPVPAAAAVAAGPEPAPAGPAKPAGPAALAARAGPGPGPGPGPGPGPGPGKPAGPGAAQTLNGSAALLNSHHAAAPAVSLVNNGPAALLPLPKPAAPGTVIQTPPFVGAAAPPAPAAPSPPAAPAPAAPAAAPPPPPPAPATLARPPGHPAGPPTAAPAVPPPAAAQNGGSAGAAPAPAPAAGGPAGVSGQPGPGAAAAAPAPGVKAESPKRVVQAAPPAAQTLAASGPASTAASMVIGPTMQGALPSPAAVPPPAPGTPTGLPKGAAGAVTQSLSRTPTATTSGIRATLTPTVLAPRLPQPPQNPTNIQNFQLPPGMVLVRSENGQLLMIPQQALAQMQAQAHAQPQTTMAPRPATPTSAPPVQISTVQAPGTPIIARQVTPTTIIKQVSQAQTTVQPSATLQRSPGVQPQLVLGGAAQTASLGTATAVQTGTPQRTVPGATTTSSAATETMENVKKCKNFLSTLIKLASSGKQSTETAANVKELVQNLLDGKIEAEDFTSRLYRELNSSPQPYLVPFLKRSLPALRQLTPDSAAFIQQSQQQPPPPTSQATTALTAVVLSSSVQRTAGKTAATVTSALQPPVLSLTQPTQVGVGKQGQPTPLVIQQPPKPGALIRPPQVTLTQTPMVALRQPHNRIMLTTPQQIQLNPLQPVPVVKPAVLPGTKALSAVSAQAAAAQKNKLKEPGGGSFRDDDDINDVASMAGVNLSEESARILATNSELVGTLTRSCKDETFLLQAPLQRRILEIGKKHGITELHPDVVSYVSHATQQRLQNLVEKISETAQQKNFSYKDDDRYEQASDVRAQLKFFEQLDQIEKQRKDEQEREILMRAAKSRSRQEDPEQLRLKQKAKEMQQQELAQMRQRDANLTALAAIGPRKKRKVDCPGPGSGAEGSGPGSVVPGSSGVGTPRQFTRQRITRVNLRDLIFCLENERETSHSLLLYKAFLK
UniProt P61956, whole entry, looked up: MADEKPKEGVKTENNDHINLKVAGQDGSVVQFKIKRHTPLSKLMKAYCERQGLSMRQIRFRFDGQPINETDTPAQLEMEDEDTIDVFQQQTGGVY
UniProt Q86Y82: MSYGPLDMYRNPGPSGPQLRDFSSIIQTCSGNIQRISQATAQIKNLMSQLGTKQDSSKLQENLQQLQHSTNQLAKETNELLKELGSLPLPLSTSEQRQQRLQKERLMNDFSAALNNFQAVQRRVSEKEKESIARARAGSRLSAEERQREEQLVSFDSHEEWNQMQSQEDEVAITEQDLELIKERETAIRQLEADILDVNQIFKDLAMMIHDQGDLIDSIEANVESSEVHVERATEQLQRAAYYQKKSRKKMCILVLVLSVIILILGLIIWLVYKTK
UniProt O15260: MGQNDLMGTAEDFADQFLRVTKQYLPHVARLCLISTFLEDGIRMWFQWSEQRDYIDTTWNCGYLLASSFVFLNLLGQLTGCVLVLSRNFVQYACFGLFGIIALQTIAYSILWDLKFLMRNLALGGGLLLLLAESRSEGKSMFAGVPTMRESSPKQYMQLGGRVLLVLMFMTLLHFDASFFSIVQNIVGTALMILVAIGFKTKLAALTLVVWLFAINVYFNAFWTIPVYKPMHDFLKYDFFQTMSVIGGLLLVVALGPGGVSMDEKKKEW
UniProt Q96SI9: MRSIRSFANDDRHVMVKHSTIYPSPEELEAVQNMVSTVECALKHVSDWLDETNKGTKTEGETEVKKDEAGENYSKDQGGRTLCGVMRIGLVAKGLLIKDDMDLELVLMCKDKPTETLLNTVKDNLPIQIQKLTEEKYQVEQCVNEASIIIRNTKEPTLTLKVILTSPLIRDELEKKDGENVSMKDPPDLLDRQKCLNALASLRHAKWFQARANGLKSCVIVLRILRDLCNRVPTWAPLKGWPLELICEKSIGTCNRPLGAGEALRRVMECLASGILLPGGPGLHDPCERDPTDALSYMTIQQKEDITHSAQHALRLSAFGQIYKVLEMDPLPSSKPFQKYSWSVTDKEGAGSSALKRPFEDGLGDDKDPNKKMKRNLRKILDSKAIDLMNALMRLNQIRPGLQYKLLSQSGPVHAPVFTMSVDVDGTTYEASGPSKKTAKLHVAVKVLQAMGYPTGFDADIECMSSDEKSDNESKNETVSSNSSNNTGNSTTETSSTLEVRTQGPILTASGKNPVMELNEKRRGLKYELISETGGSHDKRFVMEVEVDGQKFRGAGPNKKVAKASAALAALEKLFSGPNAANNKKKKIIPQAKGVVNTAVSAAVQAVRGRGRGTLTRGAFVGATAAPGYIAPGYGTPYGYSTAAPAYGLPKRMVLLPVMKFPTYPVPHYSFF
UniProt Q6ZWJ1: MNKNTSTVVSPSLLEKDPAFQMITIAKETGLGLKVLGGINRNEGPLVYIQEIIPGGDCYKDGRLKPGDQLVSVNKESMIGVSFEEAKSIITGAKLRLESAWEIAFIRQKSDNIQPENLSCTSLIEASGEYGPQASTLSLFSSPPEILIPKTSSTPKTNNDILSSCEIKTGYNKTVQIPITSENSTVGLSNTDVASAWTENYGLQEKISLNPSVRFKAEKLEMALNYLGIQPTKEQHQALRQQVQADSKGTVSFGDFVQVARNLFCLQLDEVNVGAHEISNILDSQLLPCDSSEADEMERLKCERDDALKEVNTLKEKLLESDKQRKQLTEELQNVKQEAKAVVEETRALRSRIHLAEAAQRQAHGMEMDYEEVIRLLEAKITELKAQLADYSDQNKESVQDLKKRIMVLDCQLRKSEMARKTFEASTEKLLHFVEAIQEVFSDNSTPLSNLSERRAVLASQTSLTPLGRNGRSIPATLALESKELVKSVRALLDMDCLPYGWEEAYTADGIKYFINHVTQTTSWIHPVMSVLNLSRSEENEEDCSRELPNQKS

Assays:
Assay in all cases: log2 fold change, soluble protein after heating vs DMSO (PISA); higher = thermal stabilisation; K562 lysate, 10 uM; active = over 0.2 and 3.5 SD of the protein, either way, in both replicates (recomputed)
nilotinib = compound: Cc1cn(-c2cc(NC(=O)c3ccc(C)c(Nc4nccc(-c5cccnc5)n4)c3)cc(C(F)(F)F)c2)cn1 [nilotinib]
Summary of the method: (§1)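 Values give the log-two fold change in thermal stability against solvent controls, from duplicates. Crude K562 extract at 1 mg/mL protein, made by dounce homogenisation in PBS pH 7.4 with 1 mM MgCl2, was treated with 10 μM compound for 30 min. After 3 min heating across 48°C-58°C, aliquots were pooled, adjusted to 0.5% NP-40 at 4°C and centrifuged at 21,000xg for 90 min. The supernatant was measured by TMTpro 16plex LC-MS/MS with channel sums equalised.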

[1] = compound: Cc1nc(Nc2n[nH]c3c2CN(C(=O)N[C@H](CN(C)C)c2ccccc2)C3(C)C)c2sccc2n1
Summary of the method: as §1

dasatinib = compound: Cc1nc(Nc2ncc(C(=O)Nc3c(C)cccc3Cl)s2)cc(N2CCN(CCO)CC2)n1 [dasatinib]
Summary of the method: as §1

[2] = compound: Cc1ncc(-c2ccnc(Nc3ccc(S(C)(=O)=O)cc3)n2)n1C(C)C
Summary of the method: as §1

[3] = compound: Cn1cc(-c2ccc3c(c2)CCN3C(=O)Cc2cccc(C(F)(F)F)c2)c2c(N)ncnc21
Summary of the method: as §1

quisinostat = compound: Cn1cc(CNCC2CCN(c3ncc(C(=O)NO)cn3)CC2)c2ccccc21 [quisinostat]
Summary of the method: as §1

tipifarnib = compound: Cn1cncc1[C@@](N)(c1ccc(Cl)cc1)c1ccc2c(c1)c(-c1cccc(Cl)c1)cc(=O)n2C [tipifarnib]
Summary of the method: as §1

[4] = compound: NC(=O)Nc1cc(-c2cccc(F)c2)sc1C(=O)N[C@H]1CCCNC1
Summary of the method: as §1

[5] = compound: NC(=O)c1cnc(N[C@@H]2CCCC[C@@H]2N)nc1Nc1cccc(-n2nccn2)c1
Summary of the method: as §1

[6] = compound: NC1(c2ccc(-c3nc4ccn5c(=O)[nH]nc5c4cc3-c3ccccc3)cc2)CCC1
Summary of the method: as §1

[7] = compound: NCC(=O)Nc1ccc(-n2nc(C(F)(F)F)cc2-c2ccc3c(ccc4ccccc43)c2)cc1
Summary of the method: as §1

vorinostat = compound: O=C(CCCCCCC(=O)Nc1ccccc1)NO [vorinostat]
Summary of the method: as §1

silmitasertib = compound: O=C(O)c1ccc2c(c1)nc(Nc1cccc(Cl)c1)c1ccncc12 [silmitasertib]
Summary of the method: as §1

[8] = compound: O=C1NC(=O)C(c2cnc3ccccn23)=C1c1cn2c3c(cc(F)cc13)CN(C(=O)N1CCCCC1)CC2
Summary of the method: as §1

entospletinib = compound: c1cn2cc(-c3ccc4cn[nH]c4c3)nc(Nc3ccc(N4CCOCC4)cc3)c2n1 [entospletinib]
Summary of the method: as §1

Measured: log2 fold change

SUPV3L1 (UniProt Q8IYB8)
inactive: nilotinib -0.021 | [1] 0.018 | dasatinib 0.01 | [2] 0.005 | [3] 0.021 | quisinostat -0.024 | tipifarnib -0.01 | [4] 0.01 | [5] -0.018 | [6] -0.049 | [7] 0.009 | vorinostat 0.038 | silmitasertib -0.019 | [8] 0.013 | entospletinib -0.016

SURF6 (UniProt O75683)
inactive: nilotinib -0.015 | [1] -0.016 | dasatinib 0.018 | [2] -0.009 | [3] 0.02 | quisinostat 0.046 | tipifarnib -0.014 | [4] -0.032 | [5] 0.011 | [6] 0 | [7] -0.02 | vorinostat 0.13 | silmitasertib 0.015 | [8] -0.01 | entospletinib 0.018

STT3A (UniProt P46977)
inactive: nilotinib -0.001 | [1] 0.008 | dasatinib -0.044 | [2] -0.033 | [3] -0.012 | quisinostat 0.001 | tipifarnib -0.034 | [4] 0 | [5] 0.02 | [6] 0.012 | [7] -0.063 | vorinostat 0.066 | silmitasertib 0.03 | [8] -0.038 | entospletinib 0.014

TAF1 isoform 4 (UniProt P21675)
inactive: nilotinib 0.021 | [1] -0.122 | dasatinib -0.043 | [2] -0.108 | [3] 0.118 | quisinostat -0.044 | tipifarnib 0.275 | [4] 0.094 | [5] -0.051 | [6] 0.015 | [7] -0.048 | vorinostat -0.004 | silmitasertib 0.02 | [8] 0.029 | entospletinib -0.043

2 neighbouring entries from above, for reference:
SUPV3L1 (UniProt Q8IYB8)
inactive: nilotinib -0.021 | [1] 0.018 | dasatinib 0.01 | [2] 0.005 | [3] 0.021 | quisinostat -0.024 | tipifarnib -0.01 | [4] 0.01 | [5] -0.018 | [6] -0.049 | [7] 0.009 | vorinostat 0.038 | silmitasertib -0.019 | [8] 0.013 | entospletinib -0.016

SURF6 (UniProt O75683)
inactive: nilotinib -0.015 | [1] -0.016 | dasatinib 0.018 | [2] -0.009 | [3] 0.02 | quisinostat 0.046 | tipifarnib -0.014 | [4] -0.032 | [5] 0.011 | [6] 0 | [7] -0.02 | vorinostat 0.13 | silmitasertib 0.015 | [8] -0.01 | entospletinib 0.018

Additional entries:

SYNE2 isoform 2 (UniProt Q8WXH0)
inactive: nilotinib 0.086 | [1] -0.034 | dasatinib 0.032 | [2] -0.002 | [3] -0.024 | quisinostat -0.176 | tipifarnib 0.005 | [4] -0.043 | [5] -0.021 | [6] -0.091 | [7] 0.071 | vorinostat 0.088 | silmitasertib -0.015 | [8] 0.051 | entospletinib -0.003

SUZ12 (UniProt Q15022)
inactive: nilotinib 0.03 | [1] -0.025 | dasatinib 0.037 | [2] -0.013 | [3] -0.008 | quisinostat -0.005 | tipifarnib 0.016 | [4] -0.007 | [5] -0.013 | [6] -0.026 | [7] -0.064 | vorinostat -0.156 | silmitasertib 0.023 | [8] 0.021 | entospletinib 0.043

TAF10 (UniProt Q12962)
inactive: nilotinib -0.01 | [1] 0.037 | dasatinib 0.026 | [2] -0.016 | [3] 0.001 | quisinostat -0.004 | tipifarnib -0.006 | [4] 0.012 | [5] -0.03 | [6] -0.092 | [7] 0.014 | vorinostat 0.026 | silmitasertib -0.027 | [8] 0.026 | entospletinib -0.008

TAB1 (UniProt Q15750)
inactive: nilotinib 0 | [1] 0.016 | dasatinib -0.058 | [2] 0.031 | [3] 0.031 | quisinostat -0.033 | tipifarnib 0.047 | [4] 0.017 | [5] 0.01 | [6] 0.016 | [7] 0.006 | vorinostat -0.071 | silmitasertib -0.024 | [8] -0.028 | entospletinib -0.007

SWI5 (UniProt Q1ZZU3)
inactive: nilotinib 0.028 | [1] 0.028 | dasatinib -0.001 | [2] 0.237 | [3] -0.077 | quisinostat 0.019 | tipifarnib -0.06 | [4] -0.052 | [5] -0.019 | [6] -0.036 | [7] 0.087 | vorinostat 0.098 | silmitasertib -0.057 | [8] -0.046 | entospletinib -0.039

STRN4 isoform 3 (UniProt Q9NRL3)
inactive: nilotinib 0.127 | [1] -0.052 | dasatinib -0.001 | [2] 0.048 | [3] 0.051 | quisinostat 0.036 | tipifarnib 0.064 | [4] 0.013 | [5] -0.037 | [6] 0.036 | [7] 0.005 | vorinostat -0.009 | silmitasertib 0.005 | [8] -0.008 | entospletinib -0.011

STRN3 (UniProt Q13033)
inactive: nilotinib 0.01 | [1] 0.033 | dasatinib 0.004 | [2] -0.037 | [3] 0.009 | quisinostat 0.061 | tipifarnib -0.009 | [4] 0.012 | [5] -0.02 | [6] 0.004 | [7] -0.068 | vorinostat 0.041 | silmitasertib 0.013 | [8] -0.016 | entospletinib -0.002

TAF4 (UniProt O00268)
inactive: nilotinib 0.014 | [1] -0.087 | dasatinib -0.009 | [2] 0 | [3] 0.003 | quisinostat -0.097 | tipifarnib -0.029 | [4] 0.072 | [5] 0.058 | [6] 0.079 | [7] 0.038 | vorinostat 0.019 | silmitasertib -0.056 | [8] -0.047 | entospletinib 0.017

STXBP3 (UniProt O00186)
inactive: nilotinib -0.006 | [1] -0.043 | dasatinib -0.037 | [2] 0.055 | [3] 0.009 | quisinostat 0.099 | tipifarnib 0.006 | [4] 0.004 | [5] 0.009 | [6] 0.008 | [7] 0.009 | vorinostat -0.179 | silmitasertib -0.014 | [8] 0.016 | entospletinib 0.003

SUMO2 (UniProt P61956)
inactive: nilotinib -0.017 | [1] 0.011 | dasatinib 0.075 | [2] -0.009 | [3] -0.058 | quisinostat -0.04 | tipifarnib 0.007 | [4] 0.006 | [5] -0.007 | [6] 0.03 | [7] 0.045 | vorinostat 0.222 | silmitasertib -0.09 | [8] -0.007 | entospletinib -0.006

STX12 (UniProt Q86Y82)
inactive: nilotinib 0.002 | [1] -0.024 | dasatinib 0.03 | [2] 0.001 | [3] -0.004 | quisinostat -0.008 | tipifarnib -0.003 | [4] -0.009 | [5] 0.012 | [6] -0.007 | [7] 0.001 | vorinostat 0.11 | silmitasertib -0.036 | [8] 0.017 | entospletinib 0.038

SURF4 (UniProt O15260)
inactive: nilotinib -0.032 | [1] -0.018 | dasatinib -0.03 | [2] -0.026 | [3] 0.004 | quisinostat -0.013 | tipifarnib -0.09 | [4] 0.002 | [5] 0.012 | [6] -0.027 | [7] -0.022 | vorinostat 0.004 | silmitasertib 0.022 | [8] -0.025 | entospletinib 0.021

SYF2 (UniProt O95926)
inactive: nilotinib -0.023 | [1] 0 | dasatinib -0.036 | [2] 0.005 | [3] 0.003 | quisinostat -0.008 | tipifarnib 0.046 | [4] -0.016 | [5] 0.04 | [6] -0.106 | [7] -0.047 | vorinostat 0.092 | silmitasertib -0.059 | [8] -0.014 | entospletinib -0.059

STRBP (UniProt Q96SI9)
inactive: nilotinib -0.03 | [1] 0.01 | dasatinib -0.011 | [2] -0.011 | [3] 0.056 | quisinostat -0.03 | tipifarnib 0.032 | [4] 0.032 | [5] 0.003 | [6] 0.046 | [7] -0.011 | vorinostat -0.016 | silmitasertib 0.002 | [8] -0.018 | entospletinib -0.018

STXBP4 (UniProt Q6ZWJ1)
inactive: nilotinib 0.049 | [1] 0.028 | dasatinib 0.001 | [2] 0.023 | [3] -0.005 | quisinostat -0.043 | tipifarnib 0.021 | [4] -0.006 | [5] 0.008 | [6] -0.016 | [7] -0.019 | vorinostat -0.21 | silmitasertib 0.033 | [8] 0.022 | entospletinib -0.018
